Consider one substance from PMC6545562, “Slx5/Slx8‐dependent ubiquitin hotspots on chromatin contribute to stress tolerance” (The EMBO Journal, 2019).

These are yes or no findings as the source states them, for the method shown. Tags and fused reporters may be left off the sequences shown.

The target in the assay is T1, BD-Slx5-RING∆ (S. cerevisiae) (UniProt P32828).
T1 sequence: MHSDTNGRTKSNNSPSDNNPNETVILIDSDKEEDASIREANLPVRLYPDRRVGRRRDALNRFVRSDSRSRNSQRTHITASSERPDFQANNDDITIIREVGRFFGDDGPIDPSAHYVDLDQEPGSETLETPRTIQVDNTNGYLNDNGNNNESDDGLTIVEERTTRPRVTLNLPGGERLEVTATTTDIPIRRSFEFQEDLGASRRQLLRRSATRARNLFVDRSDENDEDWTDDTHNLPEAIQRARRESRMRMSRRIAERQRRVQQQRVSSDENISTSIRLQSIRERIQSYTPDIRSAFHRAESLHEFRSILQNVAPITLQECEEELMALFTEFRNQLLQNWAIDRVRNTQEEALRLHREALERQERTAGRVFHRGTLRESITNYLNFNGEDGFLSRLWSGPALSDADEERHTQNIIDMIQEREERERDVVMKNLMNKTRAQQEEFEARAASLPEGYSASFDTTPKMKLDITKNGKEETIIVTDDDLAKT
The assay can be described thus: two-hybrid; Euc1 constructs against BD-Slx5 constructs, performed as in Fig 4A; serial dilutions spotted, 30°C, 2 to 4 days.

As for “Euc1 with the coiled-coil (CC) domain truncated, yeast two-hybrid fusion (S. cerevisiae) (domain or fragment)”, the binding result is “no binding”.
